# Primary screen of a compound library

Sequences of proteins named here, by UniProt entry; tags and fusion partners are left off. Residues count along the entry.
UniProt P9WFT3, whole entry: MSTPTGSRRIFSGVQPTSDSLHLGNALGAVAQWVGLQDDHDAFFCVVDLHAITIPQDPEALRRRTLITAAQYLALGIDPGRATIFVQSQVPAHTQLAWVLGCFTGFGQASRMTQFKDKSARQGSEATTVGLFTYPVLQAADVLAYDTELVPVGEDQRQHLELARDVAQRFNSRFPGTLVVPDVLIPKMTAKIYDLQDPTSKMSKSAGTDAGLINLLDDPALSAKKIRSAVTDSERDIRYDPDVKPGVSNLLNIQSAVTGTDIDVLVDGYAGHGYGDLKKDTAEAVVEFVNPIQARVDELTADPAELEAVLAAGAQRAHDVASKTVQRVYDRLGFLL
UniProt A4I591, 1-473: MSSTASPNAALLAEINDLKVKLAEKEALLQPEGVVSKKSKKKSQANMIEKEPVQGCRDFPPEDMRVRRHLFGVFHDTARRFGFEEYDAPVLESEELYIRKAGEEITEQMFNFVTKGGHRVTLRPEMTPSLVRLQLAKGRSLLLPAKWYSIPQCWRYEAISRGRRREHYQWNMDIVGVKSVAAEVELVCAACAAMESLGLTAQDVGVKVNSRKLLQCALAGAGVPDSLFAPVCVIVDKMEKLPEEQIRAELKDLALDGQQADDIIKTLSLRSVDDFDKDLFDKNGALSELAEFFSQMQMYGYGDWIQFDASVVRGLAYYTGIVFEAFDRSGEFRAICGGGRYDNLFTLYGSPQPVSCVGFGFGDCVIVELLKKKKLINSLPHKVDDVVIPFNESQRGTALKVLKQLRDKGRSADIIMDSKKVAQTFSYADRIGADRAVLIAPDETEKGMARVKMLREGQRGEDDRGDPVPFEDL

Data taken from ChEMBL document CHEMBL3988442, “University of Dundee, Small-Polar-MMV Screening Library” (2021).

The filed quantity is “Percent Effect” (%). How 0% and 100% were set is not recorded. Most values in the screen are low, and negative values occur. This is an unselected part of the compounds tested. A dash means the value is not listed here; it may have been measured.

A: 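Tryptophan-tRNA ligase, Mycobacterium tuberculosis (UniProt P9WFT3). Enzyme assay of tryptophanyl-tRNA synthetase; the read-out is not stated. Concentration: 10 µM. Higher most likely means stronger inhibition; the record gives no direction and few retests gave an IC50. About 65,000 compounds were tested under these conditions; 0.098% (about 64) showed 50% or more at least once.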
B: 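Histidine-tRNA ligase, Leishmania infantum (UniProt A4I591). Enzyme assay of histidyl-tRNA synthetase; the read-out is not stated. Concentration: 30 µM. Direction is inferred from retests: higher values go with stronger inhibition. The assay is labelled LdHisRS but filed under L. infantum. Of about 69,000 compounds tested this way, about 410 (0.6%) reached 50% or more in at least one test.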

structure	A	B
CC(NC(=O)COc1ccccc1Cl)c1nnc2n1CCC2 (stereo not given)	-1.569%	16.87%
COCCn1c2c(ccc1=O)CC(N)CC2 (stereo not given)	-1.213%	23.3%
CN(C)C(=O)N1CC[C@]2(O)CCN(C(=O)c3ccc(C#N)nc3)C[C@@H]2C1	7.17%	19.15%
Oc1cccc(CN2C[C@H]3CC[C@@H]2CN(Cc2ccc(F)cc2)C3)c1	-1.274%	30.26%
O=C(NCCOc1ncc(Cl)cc1Cl)c1ccncc1F	-2.627%	23.08%
CCCC(=O)NC1CCN(c2ccccc2S(=O)(=O)CC)CC1	16.59%	1.818%
O=C(c1cscn1)N1CCN2C[C@H](OCc3cccnc3)C[C@H]2C1	0.8811%	5.109%
O=S(=O)(C1CC1)N1CCOC2(COCCN(c3ncccn3)C2)C1 (stereo not given)	-4.328%	18.42%
Cc1n[nH]c(SCCNC2CCN(c3nc4ccccc4s3)CC2)n1	-1.49%	21.92%
COc1cc(N2CCn3cc(CNc4ccccn4)nc3C2)ncn1	-0.09292%	19.44%
Cc1ncc2c(n1)CN(Cc1cn3ccsc3n1)CC2	4.009%	33.33%
CCC(O)Cn1cc(C2=CCN(Cc3cc(O)nc(C)n3)CC2)cn1 (stereo not given)	-2.534%	0%
CCCc1nnc(NC(=O)NC(C)Cn2cccn2)s1 (stereo not given)	-6.236%	15.38%
O=C(O)c1cc(-c2ccncc2)cc(S(=O)(=O)N2CCCCCC2)c1	-1.607%	12.99%
COc1cnc(N2CCC(c3ncc[nH]3)CC2)nc1	7.746%	0%
O=c1[nH]c(N2CCN(C3CC3)CC2)nc2c1cnn2-c1ccccc1	-0.2653%	-41.33%
Cc1nc(NC2CCCC2)cc(C2CCN2C(=O)c2ccccn2)n1 (stereo not given)	-	12.37%
O=C(CCCN1CCOCC1)N1CCCC(CO)(CC2CC2)C1 (stereo not given)	-1.755%	6.122%
CCN1Cc2cc(F)ccc2N(CC(O)C(F)(F)F)CCC1=O (stereo not given)	-	12.24%
CC(C)c1nnc2n1CCN(CCC(=O)Nc1sccc1C#N)C2	-5.221%	11.54%
Cc1nc(CN2CCOC(Cn3cncn3)C2)nc2ccccc12 (stereo not given)	-1.016%	10.67%
Cc1noc(C(C)Nc2ccc3oc(=O)[nH]c3c2)n1 (stereo not given)	-4.095%	16.42%
CCOc1ccccc1-c1noc(CN(C)Cc2cnn(C)c2)n1	-2.09%	11.54%
Cc1cc(C(=O)N(C)Cc2cnn(C)c2)c(NC(=O)C(C)(C)C)s1	3.425%	8.333%
O=C(NC[C@H]1CCCO1)c1ccc(S(=O)(=O)N2C[C@@H]3C[C@H]2CN3)cc1	-1.475%	8.571%
Cc1cc(NC(=O)NC2CCCc3c2cnn3CCO)n(C)n1 (stereo not given)	1.665%	2.679%
CNS(=O)(=O)c1ccc(CN2CCCN(CC(C)C)CC2)cc1	2.285%	19.74%
COc1cc(F)ccc1C(C(=O)O)N(C)CCN1CCOCC1 (stereo not given)	-4.909%	13.13%
CC(=O)N1CCN(C(=O)NCCCN(C(C)C)S(C)(=O)=O)CC1	3.641%	13.7%
Cc1cnn(C2CCCN(C(=O)Cc3c(C)nn(C)c3C)C2)c1 (stereo not given)	-0.3668%	11.61%
Cc1noc(C)c1CCC(=O)N1CCN(Cc2cscn2)CC1	-6.591%	14.29%
Oc1ccc(Cl)cc1CNCc1ccccc1C(F)(F)F	0.9167%	0%
Cn1ccnc1CN1CCCC(CO)(CCc2ccccc2)C1 (stereo not given)	0.7916%	1.639%
CC(C)Cc1cc(C(=O)NCCc2nnc(N)s2)n(C)n1	2.006%	14%
Cc1noc(C)c1-c1cncc(CC2CCN(C(=O)c3cc[nH]n3)C2)n1 (stereo not given)	-	5.208%
Cc1ccc(CN2C(=O)OCC2CO)c2ccccc12 (stereo not given)	3.266%	14.13%
O=C(c1cnccn1)N1CCC2(CCN(Cc3ccsc3)CC2)CC1	-1.507%	6.944%
COc1cc(CN2CCN(c3cccc(OC)c3)C(=O)C2)cc(OC)c1	-0.5687%	18.27%
O=C1CSC(c2ccsc2)c2c(n(C3CCOCC3)[nH]c2=O)N1 (stereo not given)	25.93%	11.65%
CC(C)(CC(=O)Nc1cccc(Oc2ccccn2)c1)C(=O)O	-1.521%	2.679%
CNS(=O)(=O)c1cccc(C(C)NCc2nccn2C(C)C)c1 (stereo not given)	0%	5.769%
CCOc1ccc(Cl)c(C(=O)N2CCN(c3ncccn3)CC2)n1	-0.3895%	13.91%
O=C(c1ccco1)N1C[C@@H]2OCCN(c3ncccn3)[C@@H]2C1	-7.181%	0%
CN(C)C(C(=O)NCC1(C)COC1)c1cccc(F)c1 (stereo not given)	-1.257%	10.67%
Cc1csc(CN(C)c2cc(C)nc3c(C)c(C)nn23)n1	-4.739%	6.849%
CCCC(C)(C)NC(=O)c1cnc(CC)s1	-1.283%	14.29%
O=C(Cc1ccc(F)cc1)NCC1CCN(Cc2ccsc2)CC1	3.081%	15.73%
CN1CCCN(c2nccc(-c3cncnc3C3CCCCC3)n2)CC1	-	20%
Cc1cccc(N2CCOCC3(C2)CN(c2ccoc2)C(=O)CO3)n1 (stereo not given)	-	26.92%
O=C(NCCCn1ccnc1)Nc1ccn(CCc2ccccn2)n1	-2.252%	5.714%
Cc1cccc(Oc2ccccc2CNC(=O)C2CCNC(=O)C2)c1 (stereo not given)	2.839%	18.09%
CCN1C[C@@H]2[C@@H](OC)CCN(C(=O)c3cc(C)nn3CC)[C@@H]2C1	-1.954%	-3.947%
Cc1nc(C)n(CC2CCCCN2CCCC#N)n1 (stereo not given)	-2.584%	9.677%
Cc1ccc(CN(C)C(=O)c2n[nH]c(N)c2-c2ccccc2)o1	-0.000006%	0%
CCc1ccc(C2CCCN2C(=O)CNC(=O)CCC(C)C)o1 (stereo not given)	-0.7158%	11.83%
c1cnc(OCc2nnc3n2CCN(CC2CCOCC2)C3)nc1	-1.744%	16.36%
Cc1nn(C)c(Cl)c1C1CCCN1C(=O)c1cc(C2CC2)on1 (stereo not given)	-1.163%	7.143%
O=C(NC1CC(=O)N(C2Cc3ccccc3C2)C1)c1ccoc1 (stereo not given)	-6.537%	10%
CN(C)C(=O)CO[C@H]1CN(Cc2ccc(F)cc2)[C@@H]2CCCO[C@H]12	0.7457%	17.92%
O=C1C(Sc2nnnn2C2CC2)CCN1c1ccccc1F (stereo not given)	-5.882%	7.292%
CC(C)c1cc(C2CCCN2C(=O)CN2C(=O)CCNC2=O)no1 (stereo not given)	3.818%	18.37%
CC(C)(O)c1cn(C2CCN(c3ncccc3Cl)CC2)nn1	3.236%	6.383%
Cc1nc2n(n1)CC(NCC(=O)NCC1(c3ccccc3)CC1)CC2 (stereo not given)	-1.341%	10.96%
COC(=O)c1sccc1S(=O)(=O)NCCc1ccoc1	0.228%	6.957%
Cc1cccc(NC(=O)c2cncc(C3CCNCC3)n2)n1	-4.008%	12.68%
COCC(=O)N(C)Cc1ccc(F)c(F)c1	2.532%	-13.83%
Cc1cnn(CC2CCCN2C(=O)c2ccc3cc[nH]c3c2)c1 (stereo not given)	-4.971%	13.51%
O=C(NCc1ccnc(OCC2CC2)c1)C1Cc2ccccc2O1 (stereo not given)	-2.147%	6.218%
Cn1cnnc1C1CCN(C(=O)COCc2ccccc2Cl)CC1	-0.7776%	5.435%
Cc1nn(CCO)cc1CN1CCC(C(C)N2CCCC2)CC1 (stereo not given)	0.457%	22.37%